Experimental data: patent publication US10689628B2, “Method of making variant LovD polypeptides” (THE REGENTS OF THE UNIVERSITY OF CALIFORNIA, priority 2009, dated 2020)
For some assays here: At least one structure is not confirmed: it was looked up by name or label, or the drawing left a doubt. Some entries share one result that the patent states for a list of compounds.

Columns and labels:
LovD [1] = molecular target: T1, LovD (Aspergillus terreus, UniProt Q9Y7D1); assay: Initial velocities of thioester substrates with pure LovD; type: biochemical; settings: 1 mM MJ, 4 mM thioester substrate, 10 uM pure LovD, 50 mM HEPES, pH 7.9
T1 construct: made in house; host or cells: E. coli BL21(DE3)/pAW31

LovD [2] = molecular target: T1, LovD; settings: cited from earlier work
E. coli YT2 = assay: Whole-cell biocatalysis, MJ acid and DMB-S-MMP to simvastatin acid (Example 1); settings: 8 hours conversion, alanine scanning mutants

Row | Molecule | Initial Velocity (ki) (LovD [1]) [min⁻¹] | attenuation of catalytic activity of SVA synthesis compared to the natural substrate attached to LovF (LovD [2]) | whole cell activity compared to the wild type (in words) (E. coli YT2)
1 | CCC(C)(C)C(=O)SCCC(=O)OC [DMB-S-MMP, α-dimethylbutyryl-S-methyl-mercaptopropionate] | 0.60 | ~1,300 fold | –
2 | A2: LovD C49A mutant (protein, UniProt Q9Y7D1 1-413, looked up, variant C49A) Monacolin J acid …: MGSIIDAAAAADPVVLMETAFRKAVKSRQIPGAVIMARDCSGNLNYTRAFGARTVRRDECNQLPPLQVDTPCRLASATKLLTTIMALQCMERGLVDLDETVDRLLPDLSAMPVLEGFDDAGNARLRERRGKITLRHLLTHTSGLSYVFLHPLLREYMAQGHLQSAEKFGIQSRLAPPAVNDPGAEWIYGANLDWAGKLVERATGLDLEQYLQENICAPLGITDMTFKLQQRPDMLARRADQTHRNSADGRLRYDDSVYFRADGEECFGGQGVFSGPGSYMKVLHSLLKRDGLLLQPQTVDLMFQPALEPRLEEQMNQHMDASPHINYGGPMPMVLRRSFGLGGIIALEDLDGENWRRKGSLTFGGGPNIVWQIDPKAGLCTLAFFQLEPWNDPVCRDLTRTFEHAIYAQYQQG | – | – | lower whole cell activity
3 | A4: LovD C72A mutant (protein, UniProt Q9Y7D1 1-413, looked up, variant C72A) Monacolin J acid …: MGSIIDAAAAADPVVLMETAFRKAVKSRQIPGAVIMARDCSGNLNYTRCFGARTVRRDECNQLPPLQVDTPARLASATKLLTTIMALQCMERGLVDLDETVDRLLPDLSAMPVLEGFDDAGNARLRERRGKITLRHLLTHTSGLSYVFLHPLLREYMAQGHLQSAEKFGIQSRLAPPAVNDPGAEWIYGANLDWAGKLVERATGLDLEQYLQENICAPLGITDMTFKLQQRPDMLARRADQTHRNSADGRLRYDDSVYFRADGEECFGGQGVFSGPGSYMKVLHSLLKRDGLLLQPQTVDLMFQPALEPRLEEQMNQHMDASPHINYGGPMPMVLRRSFGLGGIIALEDLDGENWRRKGSLTFGGGPNIVWQIDPKAGLCTLAFFQLEPWNDPVCRDLTRTFEHAIYAQYQQG | – | – | lower whole cell activity
4 | A5: LovD C89A mutant (protein, UniProt Q9Y7D1 1-413, looked up, variant C89A) Monacolin J acid …: MGSIIDAAAAADPVVLMETAFRKAVKSRQIPGAVIMARDCSGNLNYTRCFGARTVRRDECNQLPPLQVDTPCRLASATKLLTTIMALQAMERGLVDLDETVDRLLPDLSAMPVLEGFDDAGNARLRERRGKITLRHLLTHTSGLSYVFLHPLLREYMAQGHLQSAEKFGIQSRLAPPAVNDPGAEWIYGANLDWAGKLVERATGLDLEQYLQENICAPLGITDMTFKLQQRPDMLARRADQTHRNSADGRLRYDDSVYFRADGEECFGGQGVFSGPGSYMKVLHSLLKRDGLLLQPQTVDLMFQPALEPRLEEQMNQHMDASPHINYGGPMPMVLRRSFGLGGIIALEDLDGENWRRKGSLTFGGGPNIVWQIDPKAGLCTLAFFQLEPWNDPVCRDLTRTFEHAIYAQYQQG | – | – | lower whole cell activity
5 | A6: LovD C216A mutant (protein, UniProt Q9Y7D1 1-413, looked up, variant C216A) Monacolin J acid …: MGSIIDAAAAADPVVLMETAFRKAVKSRQIPGAVIMARDCSGNLNYTRCFGARTVRRDECNQLPPLQVDTPCRLASATKLLTTIMALQCMERGLVDLDETVDRLLPDLSAMPVLEGFDDAGNARLRERRGKITLRHLLTHTSGLSYVFLHPLLREYMAQGHLQSAEKFGIQSRLAPPAVNDPGAEWIYGANLDWAGKLVERATGLDLEQYLQENIAAPLGITDMTFKLQQRPDMLARRADQTHRNSADGRLRYDDSVYFRADGEECFGGQGVFSGPGSYMKVLHSLLKRDGLLLQPQTVDLMFQPALEPRLEEQMNQHMDASPHINYGGPMPMVLRRSFGLGGIIALEDLDGENWRRKGSLTFGGGPNIVWQIDPKAGLCTLAFFQLEPWNDPVCRDLTRTFEHAIYAQYQQG | – | – | lower whole cell activity
6 | A7: LovD C266A mutant (protein, UniProt Q9Y7D1 1-413, looked up, variant C266A) Monacolin J acid …: MGSIIDAAAAADPVVLMETAFRKAVKSRQIPGAVIMARDCSGNLNYTRCFGARTVRRDECNQLPPLQVDTPCRLASATKLLTTIMALQCMERGLVDLDETVDRLLPDLSAMPVLEGFDDAGNARLRERRGKITLRHLLTHTSGLSYVFLHPLLREYMAQGHLQSAEKFGIQSRLAPPAVNDPGAEWIYGANLDWAGKLVERATGLDLEQYLQENICAPLGITDMTFKLQQRPDMLARRADQTHRNSADGRLRYDDSVYFRADGEEAFGGQGVFSGPGSYMKVLHSLLKRDGLLLQPQTVDLMFQPALEPRLEEQMNQHMDASPHINYGGPMPMVLRRSFGLGGIIALEDLDGENWRRKGSLTFGGGPNIVWQIDPKAGLCTLAFFQLEPWNDPVCRDLTRTFEHAIYAQYQQG | – | – | lower whole cell activity
7 | A8: LovD C380A mutant (protein, UniProt Q9Y7D1 1-413, looked up, variant C380A) Monacolin J acid …: MGSIIDAAAAADPVVLMETAFRKAVKSRQIPGAVIMARDCSGNLNYTRCFGARTVRRDECNQLPPLQVDTPCRLASATKLLTTIMALQCMERGLVDLDETVDRLLPDLSAMPVLEGFDDAGNARLRERRGKITLRHLLTHTSGLSYVFLHPLLREYMAQGHLQSAEKFGIQSRLAPPAVNDPGAEWIYGANLDWAGKLVERATGLDLEQYLQENICAPLGITDMTFKLQQRPDMLARRADQTHRNSADGRLRYDDSVYFRADGEECFGGQGVFSGPGSYMKVLHSLLKRDGLLLQPQTVDLMFQPALEPRLEEQMNQHMDASPHINYGGPMPMVLRRSFGLGGIIALEDLDGENWRRKGSLTFGGGPNIVWQIDPKAGLATLAFFQLEPWNDPVCRDLTRTFEHAIYAQYQQG | – | – | lower whole cell activity
